In the supplement of paper PMC10727501:
The other results are listed elsewhere or left out. This data set is noisy: repeats of one test often differ as much as different tests do.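 Free-swimming zebrafish larvae were scored for O-bend response probability to dark flashes (naive: first five; training: remaining flashes of four 60-flash blocks; test: later 60-flash block) and for turning toward alternating leftward/rightward LED motion (OMR). Six treated larvae were compared with sixty 0.1% DMSO controls; |SSMD|≥2 defined a hit.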

Tested on: Danio rerio larvae (5 dpf, TLF)
Assay: Prob-Test (SSMD vs DMSO vehicle); higher = higher than vehicle (e.g. higher dark-flash O-bend response probability, or better optomotor performance)
Conditions: 10 µM; pre-incubation: 30-90 min

Compared with CCCC[N+]1(C)[C@@H]2C[C@@H](OC(=O)[C@@H](CO)c3ccccc3)C[C@H]1[C@@H]1O[C@@H]12.[Br-] (some centres undefined) [Butylscopolamine Bromide], CCCN1CCO[C@@H]2c3cc(O)ccc3OC[C@@H]21 is lower in Prob-Test: -0.269 for the first, -0.422 for the second.

Compared with CN(C)Cc1c[nH]c2ccccc12 [Gramine], CN(C)CCc1ccc(O)cc1 [Hordenine] is lower in Prob-Test: 0.138 for the first, 0.0394 for the second.

Going from NC[C@H](CC(=O)O)c1ccc(Cl)cc1 [(R)-baclofen] to CN1CCc2cc3c(cc2[C@H]1[C@@H]1OC(=O)c2c1ccc1c2OCO1)OCO3 [(+)-Bicuculline], the Prob-Test falls from -0.105 to -0.229.

Compared with CCC1(C)CC(=O)NC(=O)C1 [Bemegride], CC(C)(C)[C@@]1(O)C[C@@H]2OC(=O)C[C@@]23C(=O)O[C@H]2OC(=O)[C@H](O)C213 (some centres undefined) [Bilobalide] is higher in Prob-Test: -0.13 for the first, 0.00519 for the second.

Tested on: Danio rerio larvae (5 dpf, TLF)
Assay: Prob-Naive (SSMD vs DMSO vehicle); higher = higher than vehicle (e.g. higher dark-flash O-bend response probability, or better optomotor performance)
Conditions: 10 µM; pre-incubation: 30-90 min

Going from Cl.O=C1CC[C@@]2(O)[C@H]3Cc4ccc(O)c5c4[C@@]2(CCN3CC2CC2)[C@H]1O5 [Naltrexone HCl] to C[C@]12CCC(=O)C=C1C=C[C@@H]1[C@@H]2CC[C@@]2(C)[C@H]1CC[C@@]2(O)CCC(=O)O.[K] [Potassium Canrenoate], the Prob-Naive rises from -0.215 to -0.0812.

First: CN1CCc2cccc3c2C1Cc1ccc(O)c(O)c1-3.CN1CCc2cccc3c2C1Cc1ccc(O)cc1-3 (stereo not drawn) [R-(-)-Apomorphine HCl Hemihydrate]
Second: CN1CCc2cc3c(cc2[C@H]1[C@@H]1OC(=O)c2c1ccc1c2OCO1)OCO3 [(+)-Bicuculline]
The Prob-Naive of the first is lower: -0.621 for the first, -0.199 for the second.

Compared with C#C[C@@]1(O)C=C[C@H]2[C@@H]3CCC4=CC(=O)CC[C@@H]4[C@@H]3CC[C@@]21CC [Gestodene], C#C[C@@]1(O)CC[C@H]2[C@@H]3CCC4=CC(=O)CC[C@]4(C)[C@@H]3CC[C@@]21C [Ethisterone] is higher in Prob-Naive: -0.393 for the first, 0.549 for the second.

Going from Cc1cccc(C)c1NC1=NCCCS1.Cl [Xylazine HCl] to Cc1cccc([C@H](C)c2cnc[nH]2)c1C.Cl [Dexmedetomidine HCl (Precedex)], the Prob-Naive falls from -0.038 to -2.5.

First: CC(C)NCC(O)c1ccccc1Cl.Cl (centres undefined) [Clorprenaline HCl]
Second: CN(C)Cc1c[nH]c2ccccc12 [Gramine]
The Prob-Naive of the first is lower: -0.435 for the first, -0.0225 for the second.

First: CC(O)(CS(=O)(=O)c1ccc(F)cc1)C(=O)Nc1ccc(C#N)c(C(F)(F)F)c1 (centres undefined) [Bicalutamide]
Second: Cc1cc(C(=O)CN2CCCC2)c(C)n1-c1ccc(F)cc1
The Prob-Naive of the first is lower: 0.0155 for the first, 0.255 for the second.

Compared with CC[C@@H]1[C@@H](C)O[C@@](O)([C@@H](C)[C@H](O)[C@H](C)[C@H]2OC(=O)/C=C/C=C/[C@H](C)[C@H]([C@@H](C)[C@@H](O)[C@H](C)[C@@]3(O)C[C@@H](O[C@H]4C[C@H](O)[C@H](O)[C@H](C)O4)[C@H](CC)[C@@H](C)O3)OC(=O)/C=C/C=C/[C@H]2C)C[C@H]1O[C@H]1C[C@H](O)[C@H](O)[C@H](C)O1 [Elaiophylin], C[C@H]1CCC/C=C/[C@@H]2C[C@H](O)C[C@H]2[C@H](O)/C=C/C(=O)O1 [Brefeldin A] is higher in Prob-Naive: 0.292 for the first, 0.464 for the second.

Compared with CCOc1ccccc1-n1c(C(C)N2CCN(C(=O)COc3ccc(Cl)cc3)CC2)nc2ccccc2c1=O (centres undefined) [Erastin], CN(C)C(=O)C(CCN1CCC(O)(c2ccc(Cl)cc2)CC1)(c1ccccc1)c1ccccc1.Cl [Loperamide HCl] is higher in Prob-Naive: -0.293 for the first, -0.171 for the second.

First: CC(C)N(CCC(C(N)=O)(c1ccccc1)c1ccccn1)C(C)C.O=P(O)(O)O (centres undefined) [Disopyramide Phosphate]
Second: O=C(O)CNC(=O)c1c(O)c2ccccc2n(Cc2ccccc2)c1=O
The Prob-Naive of the first is higher: 0.457 for the first, 0.146 for the second.

First: Cc1cc(O)ccc1Cl [Chlorocresol]
Second: CCNCC.O=S(=O)(O)c1cc(O)ccc1O [Ethamsylate]
The Prob-Naive of the first is lower: -0.596 for the first, -0.0384 for the second.

First: C=C1C[C@@H]2[C@@H](CC[C@@]3(C)C(=O)CC[C@@H]23)[C@@]2(C)C=CC(=O)C=C12 [Exemestane]
Second: C[C@]12CC[C@H](O)C[C@@H]1CC[C@@H]1[C@H]2CC[C@]2(C)C(=O)CC[C@@H]12 [Epiandrosterone]
The Prob-Naive of the first is higher: -0.253 for the first, -1.19 for the second.

Going from C[N+]1(C)[C@@H]2C[C@H](OC(=O)[C@H](CO)c3ccccc3)C[C@H]1[C@@H]1O[C@@H]12.[Br-] [Methscopolamine] to CCCC[N+]1(C)[C@@H]2C[C@@H](OC(=O)[C@@H](CO)c3ccccc3)C[C@H]1[C@@H]1O[C@@H]12.[Br-] (some centres undefined) [Butylscopolamine Bromide], the Prob-Naive rises from -0.0215 to 0.208.

First: c1cc2c(cc1[C@H]1OC[C@H]3[C@H]1CO[C@@H]3c1ccc3c(c1)OCO3)OCO2 [Sesamin]
Second: CCCN1CCO[C@@H]2c3cc(O)ccc3OC[C@@H]21
The Prob-Naive of the first is lower: -2.91 for the first, 0.028 for the second.

Going from O=c1[nH]c2ccccc2n1CCCN1CCC(n2c(=O)[nH]c3cc(Cl)ccc32)CC1 [Domperidone] to CN1C(=O)CCS(=O)(=O)C1c1ccc(Cl)cc1 (centres undefined) [Chlormezanone], the Prob-Naive rises from -0.0304 to 0.285.

First: CN1C2CCC1CC(OC(=O)[C@H](CO)c1ccccc1)C2 (some centres undefined) [Hyoscyamine]
Second: NC[C@H](CC(=O)O)c1ccc(Cl)cc1 [(R)-baclofen]
The Prob-Naive of the first is higher: -0.109 for the first, -0.376 for the second.

Compared with C[N+](C)(C)CCCCCCCCCC[N+](C)(C)C.[Br-].[Br-] [Decamethonium Bromide], CN(C)CCc1ccc(O)cc1 [Hordenine] is higher in Prob-Naive: 0.0516 for the first, 0.146 for the second.

Going from CC[C@@H](C(N)=O)N1CCCC1=O [Levetiracetam] to CCC1(C)CC(=O)NC(=O)C1 [Bemegride], the Prob-Naive falls from -0.0234 to -0.45.

Going from NCC1(CC(=O)O)CCCCC1 [Gabapentin (Neurontin)] to CC(C)(C)[C@@]1(O)C[C@@H]2OC(=O)C[C@@]23C(=O)O[C@H]2OC(=O)[C@H](O)C213 (some centres undefined) [Bilobalide], the Prob-Naive rises from -0.319 to 0.375.
